Test results reported in patent US10113968B2, “Specific detection and quantification of cardiolipin and isolated mitochondria by positively charged AIE fluorogens and method of manufacturing thereof” (priority 2013, dated 2018).

Experiment: Fluorescence response of dye to CL-containing (TOCL/DOPC) and CL-free (DOPC) LUVs
Conditions: [dye]=10 μM, λex=350 nm
Experimental: CL-containing vesicles are composed of TOCL/DOPC (1:1 molar ratio), and CL-free vesicles are composed of pure DOPC, respectively, in a 25 mM HEPES buffer at pH 7.4. [dye]=10 μM; [lipid]total=22 μM; λex=350 nm.
FIG. 3A is a plot of the fluorescence enhancement (I/I0−1) of TTAPE-Me at 480 nm with CL-containing and CL-free vesicles.
FIG. 3B is the linear region of the I/I0−1 value versus CL concentration. [dye]=10 μM; λex=350 nm.
FIG. 4B is a plot of the fluorescence enhancement at 480 nm versus CL content. [dye]=10 μM; [lipid]total=22 μM; λex=350 nm.
CL-containing and CL-free vesicles are composed of TOCL/DOPC (1:1 molar ratio) and pure DOPC, respectively, in a 25 mM HEPES buffer at pH 7.4. [dye]=10 μM; [lipid]total=22 μM; λex=350 nm.
The fluorescence enhancement (I/I0−1) of TTAPE-Me at 480 nm is in a linear fashion in the CL concentration of 0-10 μM (FIG. 3B), which lies in the physiological range of CL in mitochondrial membrane. Linear detection of CL can also be obtained with the varying content of TOCL (2-50% TOCL) in the vesicles (FIG. 4A-4B). The results imply that flexible TTAPE-Me to CL ratio is allowed in the detection and quantification of CL. In contrast, conventional NAO requires strict 2:1 ratio of NAO/CL for quantitative measurement. Moreover, the detection of CL can be done immediately upon mixing the vesicles with the probe without any extra treatment. […]

C[N+](C)(C)CCOc1ccc(C(=C(c2ccc(OCC[N+](C)(C)C)cc2)c2ccc(OCC[N+](C)(C)C)cc2)c2ccc(OCC[N+](C)(C)C)cc2)cc1.[Br-].[Br-].[Br-].[Br-] [TTAPE-Me, 1,1,2,2-tetrakis[4-(2-trimethylammonio-ethoxy)phenyl]ethene tetrabromide]
TOCL content of vesicles giving linear detection of CL ([lipid]total=22 μM): 2-50 % TOCL
CL concentration range with linear fluorescence enhancement (I/I0−1) at 480 nm: 0 to 10 µM
